Drawing on publication PMC6193047, this text covers binding for one molecule.

No constants are given. Whether binding was seen depends on the method and setting. In cells and extracts the contact can be indirect. Some results given as binding are weak or reduced against the parent protein; the word gives no strength. Where a sequence is shown, tags or fusion partners need not be part of it.

This assay concerns the target T1, 3Flag-tagged Nud1 (S. cerevisiae) (UniProt P32336).
T1 sequence: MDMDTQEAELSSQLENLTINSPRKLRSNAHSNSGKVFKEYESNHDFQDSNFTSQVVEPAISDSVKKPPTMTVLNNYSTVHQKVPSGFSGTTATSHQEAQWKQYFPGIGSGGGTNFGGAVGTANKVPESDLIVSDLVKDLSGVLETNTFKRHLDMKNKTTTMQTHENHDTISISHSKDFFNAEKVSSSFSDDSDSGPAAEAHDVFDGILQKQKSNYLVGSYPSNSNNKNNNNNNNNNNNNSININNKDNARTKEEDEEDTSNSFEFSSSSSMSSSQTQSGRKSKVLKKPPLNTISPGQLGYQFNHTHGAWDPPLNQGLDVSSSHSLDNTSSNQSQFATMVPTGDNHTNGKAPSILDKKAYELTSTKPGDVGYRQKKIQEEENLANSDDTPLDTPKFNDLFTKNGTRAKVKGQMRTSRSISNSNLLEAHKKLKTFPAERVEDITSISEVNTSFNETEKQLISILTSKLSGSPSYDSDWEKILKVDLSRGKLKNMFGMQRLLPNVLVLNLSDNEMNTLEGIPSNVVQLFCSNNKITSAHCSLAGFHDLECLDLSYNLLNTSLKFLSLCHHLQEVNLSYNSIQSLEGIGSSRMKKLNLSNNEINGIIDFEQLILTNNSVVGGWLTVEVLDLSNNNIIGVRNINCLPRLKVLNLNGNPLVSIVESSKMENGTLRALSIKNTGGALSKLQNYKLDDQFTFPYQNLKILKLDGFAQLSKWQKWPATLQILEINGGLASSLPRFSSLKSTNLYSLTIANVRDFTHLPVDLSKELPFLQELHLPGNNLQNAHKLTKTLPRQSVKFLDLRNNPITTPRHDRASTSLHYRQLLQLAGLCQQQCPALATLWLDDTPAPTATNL
Put plainly: co-IP; 3Flag-tagged Nud1 and 3HA-tagged Dma2 from yeast cells in anaphase; the method of the native co-IP is not described in the text shown.

B1: 3HA-tagged Dma2 (enzyme, UniProt P53924 1-522)
chain: MYTPIPANTPAPTAPTSSMTSNSSSASNANTTSSSGINPRNRASGTPSNERARPASGISSFLNTFGIRQNSQTASSSAAPDQRLFGTTPSNSHMSVAMESIDTAPQQQEPRLHHPIQMPLSAQFHVHRNYQLPISISLTAPTTTDHQQSSAHNFEGNNVGNVQESLNQRQPNGTNNTTTSIISMAPAATTRNIVGGADGSTIVNNSQEMYKNLRHLIYAANQPNGTEILHLDLPATSAEESNNMFNVDEVTLKQRKDKHGLFSIRLTPFIDSSSTTNQGLFFEPIIRKAGPGSQLVIGRYTERVRDAISKIPEQYHPVVFKSKVVSRTHGCFKVDSQGNWYIKDVKSSSGTFLNHQRLSPASSLSKDTPLRDGDILQLGMDFRGGTEEIYRCVRMRIELNRSWKLKANSFNKEALQRLQNLQKLTTGIEEEDCSICLCKIKPCQAIFISPCAHSWHFRCVRRLVMLSYPQFVCPNCRSSCDLEASFESSDEEDESDVESEGDQLVDQLSVLMETSKDVDSHP
As for B1, the binding entry is reported as “binds”.
